Measured values as given in patent publication US12133843B2, “IL-8 inhibitors for use in the treatment and/or prevention of bacterial secondary infections” (priority 2017, dated 2024).
At least one compound was matched to its structure with a doubt left.

Tested on: H1N1 influenza virus plus cigarette smoke
Test: Lung inflammation exacerbation model combining H1N1 influenza infection and cigarette smoke exposure (Cs-H1N1)
Type: in vivo, female C57BL/6 mice
Description: Viral infections are among the principal causes of COPD exacerbations (Mackay, A. J. & Hurst, J. R. Immunol Allergy Clin North Am 33, 95-115; 2013). For that reason, the inventors combined influenza infection and cigarette smoke exposure (Cs) in mice in order to model COPD exacerbation. The inventors essentially exposed female C57BL/6 mice to Cs for 12 days and infect them with 1000 pfu of H1N1 influenza virus at day 7 after starting daily Cs exposure (Cs-H1N1).

[1] = Cs-H1N1 mice, 1 mg/kg p.o. once a day

## C[C@@H]1C[C@H]2[C@@H]3CCC4=CC(=O)C=C[C@]4(C)[C@@]3(F)[C@@H](O)C[C@]2(C)[C@@]1(O)C(=O)CO [Dexamethasone]
[1]
  Mononuclear cell infiltration in BAL: decreased
  Neutrophilic infiltration: failed to alter
Cs-H1N1 mice, survival assay, LD50 of influenza virus, once a day for 7 days from day of infection
  Mortality rate: failed to alter
Survival assay, once a day for 7 days from day of infection
  Mice mortality, delay (survival curve vs Cs-H1N1 group): no significant differences
